Values of other authors as cited in patent publication US8080517B2, “Cell-permeable peptide inhibitors of the JNK signal transduction pathway” (Xigen SA, priority 2005, dated 2011).
At least one compound was matched to its structure with a doubt left.

Conditions: MPTP-induced PD; cited from earlier work

In the case of `Oc1c2ccccc2c2c3c(cccc13)N=N2` [SP600125], the “apoptosis of dopaminergic neurons” value is given as “protect dopaminergic neurons from apoptosis”, the level of dopamine is given as “partly restore the level of dopamine” and the “levels of c-Jun phosphorylation” value is given as “reduce the levels of c-Jun phosphorylation”.
